Test results published in article PMC5770370.
Results are given in words; binding and its absence hold for the method and conditions named. In cells and extracts the contact can be indirect. Some binding calls cover weakened binding; strength is not graded here.

Protein sequences, listed by entry. Tags and fused reporters are not part of them.
UniProt Q9Z1E3: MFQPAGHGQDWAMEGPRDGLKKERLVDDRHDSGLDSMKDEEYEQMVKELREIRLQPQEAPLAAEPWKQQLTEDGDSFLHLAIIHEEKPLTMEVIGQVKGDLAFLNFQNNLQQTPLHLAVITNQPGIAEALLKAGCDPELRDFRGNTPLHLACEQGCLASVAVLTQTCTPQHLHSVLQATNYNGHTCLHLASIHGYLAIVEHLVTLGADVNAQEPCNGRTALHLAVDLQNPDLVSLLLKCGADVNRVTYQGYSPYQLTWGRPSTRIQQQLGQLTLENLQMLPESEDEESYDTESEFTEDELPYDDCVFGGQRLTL
UniProt Q04207: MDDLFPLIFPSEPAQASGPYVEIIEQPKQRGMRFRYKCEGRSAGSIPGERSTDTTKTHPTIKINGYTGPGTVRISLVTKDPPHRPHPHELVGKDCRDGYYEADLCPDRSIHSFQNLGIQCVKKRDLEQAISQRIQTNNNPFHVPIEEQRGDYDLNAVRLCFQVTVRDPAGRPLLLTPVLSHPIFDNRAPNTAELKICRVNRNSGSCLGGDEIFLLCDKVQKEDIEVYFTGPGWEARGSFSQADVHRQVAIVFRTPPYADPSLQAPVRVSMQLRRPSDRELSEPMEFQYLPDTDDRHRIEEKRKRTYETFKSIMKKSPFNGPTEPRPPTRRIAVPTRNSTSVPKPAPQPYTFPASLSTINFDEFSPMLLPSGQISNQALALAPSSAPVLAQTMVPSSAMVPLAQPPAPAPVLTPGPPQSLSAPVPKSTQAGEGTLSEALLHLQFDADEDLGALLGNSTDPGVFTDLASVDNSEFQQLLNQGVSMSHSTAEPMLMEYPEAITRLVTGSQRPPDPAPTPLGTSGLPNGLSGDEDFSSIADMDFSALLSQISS

Biological target: IκBα (mouse (endogenous in RAW264.7)) (UniProt Q9Z1E3)
Assay: co-IP; RAW264.7 cells lysed in NP40 buffer; lysate incubated with 2 μg IκBα antibody overnight, then 20 μL protein A/G agarose for 4 h at 4°C; washed with NP40 buffer, SDS-PAGE and western blotting; cells treated beforehand with bergenin (1-30 μM) or rosiglitazone (30 μM) for 24 h, with or without EX527 (1 μM) or GW9662 (10 μM), then LPS for 30 min

NF-κB-p65 (from UniProt Q04207 1-549)
binding: binds
